Source: patent US9546193B2, “Compositions and methods for 18F-fluorodeoxyglycosylamines” (The Regents of the University of California, priority 2013, dated 2017)
Some results were stated once for a whole list of compounds, not compound by compound. For at least one compound, name, drawing or mass did not settle the structure.

Tested on: human Aβ-amyloid plaques
Test: 3H-PIB competition autoradiography on postmortem AD brain sections
Type: binding
Conditions: 10 μM competitor; postmortem AD human brain slices; preliminary studies
Procedure: ^3H-PIB Binding: Human hippocampus sections (7 μm thick) were preincubated in 10% alcohol PBS buffer for 10 minutes. The brain sections were placed in a glass chamber and incubated with [^3H]-PIB (2 μCi/cc) in 10% alcohol PBS buffer, pH 7.4 at 37° C. for 1 hr. The slices were then washed with cold 10% alcohol PBS buffer (2×3 mins), cold deionized water 1 min, respectively. The brain sections were air dried, exposed overnight on a phosphor film, and then placed on the Phosphor Autoradiographic imaging System/Cyclone Storage Phosphor System (Packard Instruments Co). Regions of interest (ROIs) were drawn on the slices and the extent of binding of ^3H-PIB was measured with DLU/mm2 using the OptiQuant acquisition and analysis program (Packard Instruments Co).
Since FDGBTA is an analog of PIB, which is known to bind to human Aβ-amyloid plaques, the inventors tested competition of both PIB and FDGBTA with postmortem human brain Aβ-amyloid sites labeled with ^3H-PIB as is illustrated in Panel A of FIG. 5, with the corresponding photomicrographs in Panel B of FIG. 5.

SMILES	reduction of 3H-PIB binding in the grey matter areas [%]
OCC1OC(Nc2ccc(-c3nc4ccc(O)cc4s3)cc2)C(F)C(O)C1O (centres unmarked) [FDGBTA]	> 80
CNc1ccc(-c2nc3ccc(O)cc3s2)cc1 [PIB]	> 80
